# Results of single-concentration screens

Sequences of proteins named here, by UniProt entry; tags and fusion partners are left off. Residues count along the entry.
UniProt P9WPC5, whole entry: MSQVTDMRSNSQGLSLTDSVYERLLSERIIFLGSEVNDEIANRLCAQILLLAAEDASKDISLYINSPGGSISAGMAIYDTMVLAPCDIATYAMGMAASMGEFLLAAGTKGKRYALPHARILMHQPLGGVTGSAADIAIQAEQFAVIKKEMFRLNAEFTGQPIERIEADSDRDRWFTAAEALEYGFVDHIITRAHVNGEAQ
UniProt P9WPC3, whole entry partner: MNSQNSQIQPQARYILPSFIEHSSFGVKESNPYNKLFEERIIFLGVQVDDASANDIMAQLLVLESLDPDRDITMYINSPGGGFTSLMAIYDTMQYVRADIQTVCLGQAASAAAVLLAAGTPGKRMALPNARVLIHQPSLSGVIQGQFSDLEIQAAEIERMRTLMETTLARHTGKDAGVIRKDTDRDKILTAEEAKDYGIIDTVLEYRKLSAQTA
UniProt P9WFT3, whole entry: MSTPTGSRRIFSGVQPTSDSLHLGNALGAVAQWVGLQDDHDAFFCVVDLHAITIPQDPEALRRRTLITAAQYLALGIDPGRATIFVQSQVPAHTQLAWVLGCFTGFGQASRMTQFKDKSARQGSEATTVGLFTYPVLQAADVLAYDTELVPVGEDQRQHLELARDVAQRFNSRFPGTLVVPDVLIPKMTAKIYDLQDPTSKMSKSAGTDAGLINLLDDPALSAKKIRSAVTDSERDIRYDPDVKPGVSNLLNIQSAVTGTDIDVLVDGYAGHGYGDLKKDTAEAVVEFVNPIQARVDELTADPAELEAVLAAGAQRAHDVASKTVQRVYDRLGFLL
UniProt Q8IDJ8, 1-583: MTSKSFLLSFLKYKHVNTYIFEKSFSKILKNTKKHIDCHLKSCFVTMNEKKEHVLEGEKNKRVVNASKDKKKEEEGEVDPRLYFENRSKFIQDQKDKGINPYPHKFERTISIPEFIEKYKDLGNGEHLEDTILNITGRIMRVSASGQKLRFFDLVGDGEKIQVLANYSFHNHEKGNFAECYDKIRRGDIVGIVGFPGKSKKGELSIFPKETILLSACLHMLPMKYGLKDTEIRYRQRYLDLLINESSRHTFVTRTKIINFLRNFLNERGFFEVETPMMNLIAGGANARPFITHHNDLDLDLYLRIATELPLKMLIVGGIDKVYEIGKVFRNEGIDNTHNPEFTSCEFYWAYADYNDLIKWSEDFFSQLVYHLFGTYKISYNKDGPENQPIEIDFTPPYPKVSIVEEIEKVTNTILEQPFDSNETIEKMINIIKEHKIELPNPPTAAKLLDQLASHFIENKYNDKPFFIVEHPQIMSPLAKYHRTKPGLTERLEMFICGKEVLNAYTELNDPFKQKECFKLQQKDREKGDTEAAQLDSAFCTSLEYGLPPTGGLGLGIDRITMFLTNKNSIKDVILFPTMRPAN

A: 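Protease assay of ClpP1P2, read by the AMC dye that it sets free. Target: ClpP1P2, Mycobacterium tuberculosis (UniProt P9WPC5 and UniProt P9WPC3). Tested at 50 µM. Direction is inferred from only a few compounds that gave an IC50; most scored high, so higher reads as stronger inhibition. Most other retested compounds had strongly negative values. Of about 69,000 compounds tested this way, about 10 (0.015%) reached 50% or more in at least one test.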
B: 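Tryptophan-tRNA ligase, Mycobacterium tuberculosis (UniProt P9WFT3). Enzyme assay of tryptophanyl-tRNA synthetase; the read-out is not stated. Tested at 10 µM. Higher most likely means stronger inhibition; the record gives no direction and few retests gave an IC50. Size under these conditions: about 65,000 compounds, about 64 of them at 50% or above in at least one test.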
C: 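Enzyme assay of the cytosolic lysyl-tRNA synthetase in 384-well plates, read by luminescence. Target: Lysine-tRNA ligase, Plasmodium falciparum 3D7 (UniProt Q8IDJ8). Tested at 30 µM. Higher reads as stronger inhibition, judged from the few compounds that gave an IC50. Of about 69,000 compounds tested this way, about 49 (0.071%) reached 50% or more in at least one test.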

Each number is a percent effect as filed.
How 0% and 100% were set is not recorded. Most values in the screen are low, and negative values occur.
This is an unselected part of the compounds tested.
A dash means the value is not listed here; it may have been measured.

SMILES | A | B | C
CCNC(=O)NC(=O)CNC(C)(CC)c1nc(C)cs1 (centres undefined) | -6.003% | -0.1874% | 1.774%
CN1CCN(C(=O)c2cccs2)Cc2ccccc21 | 3.466% | -5.094% | 4.985%
Cc1nc(CN2CCN(C(C)c3nc(C4CC4)no3)CC2)oc1C (centres undefined) | -15.62% | -3.016% | 1.001%
Cn1cccc1C(=O)Nc1cc(F)ccc1OCC1CCCO1 (centres undefined) | 2.771% | -1.359% | 1.24%
CCN(CC)CCNC(=O)c1cc(OC)c2ccoc2c1 | 6.751% | 0.2154% | 5.355%
CC(C)CN1CC(c2nc(CCc3ccccc3)n[nH]2)CC1=O (centres undefined) | 3.432% | -4.931% | 6.74%
O=C(c1n[nH]cc1Cl)N1CCCC(n2nnc3cc(F)ccc32)C1 (centres undefined) | -1.648% | - | 3.227%
CCOc1cccc(CCNC(=O)Cc2ccccc2O)n1 | -19.69% | 1.505% | 0.4544%
Cc1nc(C)n(C2CCCN(C(=O)COc3cccc(C#N)c3)C2)n1 (centres undefined) | 9.732% | 2.045% | -0.1415%
COc1ncnc2c1CCN(c1cccc(F)c1)CC2 | 2.708% | -4.026% | 6.754%
COCC(=O)N(Cc1cccnc1)CC1CCN(C2CCCC2)CC1 | -8.998% | 5.206% | 0.4409%
O=c1c2cccc(Cl)c2ncn1C1CCNC1 (centres undefined) | 4.411% | 0.698% | 6.463%
O=C(CN1C[C@H]2CC[C@@H]1CN(Cc1ccccn1)C2)NCc1cccs1 | -28.46% | -0.07097% | 3.944%
CC(C)c1nccc(CN2CCCC(O)(CN3CCCC3)C2)n1 (centres undefined) | -20.09% | -4.992% | 2.935%
COc1ccc(C(=O)NC[C@H]2COCc3nc4cc(C)ccc4n32)cc1 | -1.515% | -0.2276% | 3.052%
COCCNC(=O)NCc1ccc(-n2ccc(C(F)(F)F)n2)cc1 | 1.973% | 0.6256% | 3.935%
CCCn1[nH]cc/c1=N\C(=O)CN1CCc2c(nc(C3CC3)n2C)C1 | -55.36% | -5.392% | 1.179%
CSCCC(=O)NCc1cc2n(n1)CCCN(C1CCCCC1)C2 | 25.07% | -3.815% | -7.245%
Cc1cc(C(=O)Nc2cc(C3CC3)n[nH]2)c2c(C)nn(C)c2n1 | 18.57% | -4.608% | -2.062%
CC(C)CCCC1CN(C(=O)c2cnc[nH]2)CCO1 (centres undefined) | 4.355% | 2.083% | 2.958%
O=C(NCc1cccnc1N1CCCC(O)C1)c1ccc2[nH]nnc2c1 (centres undefined) | -5.935% | 2.295% | -0.4327%
Cc1cccc2[nH]c(C3CCN(C(=O)c4cnc(O)cc4O)CC3)nc12 | 10.63% | 6.884% | -3.91%
COc1ccc(C2Nc3cc(Cl)ccc3C3=NCCN32)cc1CO (centres undefined) | -147.1% | - | 0.3879%
COCC1Cn2nnc(-c3cnn(C)c3)c2CN1Cc1cccs1 (centres undefined) | -4.63% | -3.483% | 2.298%
O=C(c1cncs1)N1CCC(c2cnccn2)CC1 | -3.07% | - | 1.613%
COc1ccccc1CC(C)CC(=O)N(C)Cc1cc(C)on1 (centres undefined) | -6.011% | -1.125% | -0.984%
Cc1ccccc1C1(C(=O)NCCN(C)C)CCOCC1 | 0.9304% | -4.011% | 2.47%
CC(C(=O)NCc1ccnc(N2CCCC2)c1)n1cncn1 (centres undefined) | 21.19% | -2.987% | -6.561%
Cc1csc2nc3n(c(=O)c12)CCN(Cc1ccccn1)CC3 | -9.564% | -3.304% | -0.2688%
Cc1ccsc1C(=O)N1CCc2ncnc(NC(C)C)c2CC1 | 1.484% | 1.757% | 6.485%
COc1ccccc1CCNC(=O)CC1(Cn2cnnn2)CCCCC1 | -16.52% | 2.249% | 4.878%
CN(C)S(=O)(=O)N1CC[C@]2(C[C@H](OCc3ccccn3)CO2)C1 | 9.277% | 0.549% | 1.04%
CC(=O)Nc1ccccc1Sc1nc(Br)nn1C | -11.78% | -3.562% | 4.868%
Cc1ccc(CN2CCc3ncnc(C4CC4)c3CC2)s1 | 12.87% | 7.03% | -0.6407%
CCNC(=O)[C@@H]1C[C@H](N)CN1c1cc(C(F)(F)F)nc(N(C)C)n1 | 17.49% | -3.043% | -3.88%
CCN1CC(C(=O)N2CCN(c3cnn(C)c(=O)c3)CC2)CCC1=O (centres undefined) | 6.616% | -3.141% | 4.686%
O=C(Cc1cccc(O)c1)NCCNc1nccc(C(F)(F)F)n1 | -1.539% | -1.104% | 5.026%
CCN1CCNC(=O)C12CCN(C(=O)Cc1ccccn1)CC2 | -4.125% | - | 3.384%
COc1cccc(CN2CCN(CC(C)C)C(=O)C2C)c1O (centres undefined) | 3.7% | 1.667% | -2.898%
COCCOc1ccc(CNc2cnc3ccccc3n2)cn1 | -368.3% | -12.48% | -1.923%
Cc1cc(F)ccc1S(=O)(=O)NCc1[nH]ncc1Br | 3.204% | -5.722% | 0.8829%
Cc1ccc(C)c(OC2CCN(C(=O)NCC(=O)N3CCCC3)CC2)c1 | -1.126% | 0.4428% | -0.1285%
COCCC(=O)N1CCC2(COCc3c(C)nc(NCC4CC4)nc32)C1 (centres undefined) | 11.84% | -2.291% | 5.088%
CCOC1COC2(CCN(CC3CC3)CC2)C1 (centres undefined) | 2.16% | - | -1.011%
CN(CCOc1ccccc1Cl)S(=O)(=O)N1CCOCC1 | -3.857% | -0.2742% | 10.55%
Cc1ccc(NC2CCN(C(=O)c3c(C)noc3C)CC2)nn1 | 3.223% | -0.1572% | 4.548%
Cc1nc2n(n1)CCN(S(=O)(=O)c1ccc(OC(F)(F)F)cc1)C2 | -2.501% | -6.049% | 8.257%
CC(C)N1CCC(N2CCOC3(CCCC3)C2)C1=O (centres undefined) | -3.018% | 1.624% | -0.1803%
Cn1nc(CNC(=O)C2CCN(S(C)(=O)=O)CC2)cc1C1CC1 | -3.334% | -1.614% | -0.05815%
Cc1cc(=O)c(C(=O)N(C)Cc2ccc(Cl)c(F)c2)c[nH]1 | 2.999% | -4.749% | 0.8921%
CC(C)Cc1nc(CN(C)c2cc(C(C)C)nc3ccnn23)no1 | -8.102% | -0.9662% | 6.23%
CCc1nccn1C1CCCN(C(=O)Cc2ccc(OC)c(F)c2)C1 (centres undefined) | -1.059% | -0.7601% | 4.702%
Cc1ccc(NC(=O)C2CSCN2C(=O)c2cnn(C)c2)c(C)c1 (centres undefined) | 10.44% | 2.747% | 2.298%
CN1CCN(Cc2cn3c(n2)CN(CC2CC2)CC3)CC1 | 8.775% | -1.444% | 5.731%
CCSc1cc(C(=O)NCCC(=O)Nc2ccccn2)ccn1 | 1.021% | -3.207% | 0.5448%
COCCN1CCC2(CCN(Cc3ccc(OC)cc3)CC2)C1=O | 15.39% | -2.326% | 4.139%
Cc1cnc(N2Cc3nccn3CC(Cn3nc(C)nc3C)C2)nc1 (centres undefined) | 8.073% | -7.052% | 3.198%
Cn1ncnc1CCNC(=O)c1cc(Cl)c(Cl)n1C | -3.245% | -1.754% | 3.989%
CCCc1noc(C2CC(=O)N(Cc3ccccc3)C2)n1 (centres undefined) | -7.619% | -2.843% | 2.959%
Cc1csc(CNC(=O)CCCc2cccs2)n1 | 2.938% | -0.9356% | 3.965%
CCN(CC)CCn1ccnc1-c1cccc(O)c1 | 0.5609% | 0.455% | 5.033%
COc1c(CNCc2ccnc(N3CCCCC3)c2)c(C)nn1C | -9.54% | 15.97% | -3.303%
COc1ncc(CN2C[C@@H]3CC[C@@](O)(c4ccc(C)cn4)[C@@H]3C2)cn1 | 5.394% | - | 3.435%
O=C(c1cnc(C2CC2)s1)N1CCCC(n2cccn2)C1 (centres undefined) | -2.147% | -2.426% | 4.214%
O=C1CC(N(C(=O)c2ccc3c(c2)CCC3)C2CC2)C(=O)N1 (centres undefined) | 8.955% | -2.439% | 7.573%
COC(=O)CC(NC(=O)c1ccc(OC)cc1OC)c1cccs1 (centres undefined) | 6.066% | 2.428% | 4.003%
CN(Cc1ccno1)c1nc(C2CCCC2)nc2c1cnn2C | 4.001% | 1.321% | 5.501%
Cc1cc(-c2ccccc2Cl)nc(N)n1 | -11.58% | -1.932% | 4.559%
Cc1nc(CC(=O)N2CCCCC2Cn2cccn2)cs1 (centres undefined) | -15.24% | 3.516% | -0.06036%
O=C(CN1CCCC1Cn1cncn1)NCCOc1cccc(F)c1 (centres undefined) | 4.981% | -0.2924% | 4.428%
Fc1cnc(N2CC[C@@H](N3CCOCC3)[C@@H]2Cc2ccncc2)nc1 | 0.7884% | 1.467% | 6.126%
CC(NC(=O)N1CCN(c2cccs2)CC1)c1ccc(C#N)cc1 (centres undefined) | -9.076% | -3.067% | 1.549%
Cc1csc(N2CCN(Cc3cccnc3)CC2C)n1 (centres undefined) | -13.72% | 1.36% | -0.7649%
Cc1[nH]c2ccc(CNc3cc(C(=O)NC(C)C)ccn3)cc2c1C | -10.54% | 3.865% | 4.072%
O=C1CCC2(CCN(c3cccc(C(F)(F)F)n3)CC2)CN1CCO | -6.596% | -5.307% | 6.922%

Repeated from the top, 7 entries:

- CCNC(=O)NC(=O)CNC(C)(CC)c1nc(C)cs1 (centres undefined) : A: -6.003%; B: -0.1874%; C: 1.774%
- CN1CCN(C(=O)c2cccs2)Cc2ccccc21 : A: 3.466%; B: -5.094%; C: 4.985%
- Cc1nc(CN2CCN(C(C)c3nc(C4CC4)no3)CC2)oc1C (centres undefined) : A: -15.62%; B: -3.016%; C: 1.001%
- Cn1cccc1C(=O)Nc1cc(F)ccc1OCC1CCCO1 (centres undefined) : A: 2.771%; B: -1.359%; C: 1.24%
- CCN(CC)CCNC(=O)c1cc(OC)c2ccoc2c1 : A: 6.751%; B: 0.2154%; C: 5.355%
- CC(C)CN1CC(c2nc(CCc3ccccc3)n[nH]2)CC1=O (centres undefined) : A: 3.432%; B: -4.931%; C: 6.74%
- O=C(c1n[nH]cc1Cl)N1CCCC(n2nnc3cc(F)ccc32)C1 (centres undefined) : A: -1.648%; C: 3.227%

Source: ChEMBL document CHEMBL3988442, “University of Dundee, Small-Polar-MMV Screening Library” (2021).